Assay results as given in the supplement of paper PMC10849652.
The other results are listed elsewhere or left out.

Protein sequences, listed by entry. Tags and fused reporters are not part of them. Lines headed by an entry give the natural chain unless they say otherwise; changes in a name come on top.
UniProt Q96K21: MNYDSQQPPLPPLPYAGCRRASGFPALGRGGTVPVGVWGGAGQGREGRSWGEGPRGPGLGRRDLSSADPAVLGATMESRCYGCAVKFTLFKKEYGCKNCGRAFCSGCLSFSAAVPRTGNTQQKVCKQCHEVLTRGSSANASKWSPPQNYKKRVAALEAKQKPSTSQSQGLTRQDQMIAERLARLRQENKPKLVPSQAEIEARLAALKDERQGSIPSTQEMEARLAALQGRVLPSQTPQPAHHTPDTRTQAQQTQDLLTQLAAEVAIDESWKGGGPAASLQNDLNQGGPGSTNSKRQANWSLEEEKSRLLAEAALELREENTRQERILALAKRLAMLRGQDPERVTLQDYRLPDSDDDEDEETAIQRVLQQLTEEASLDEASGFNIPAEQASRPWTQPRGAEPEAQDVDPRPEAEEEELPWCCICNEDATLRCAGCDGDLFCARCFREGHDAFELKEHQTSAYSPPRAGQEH
UniProt Q8NCN2: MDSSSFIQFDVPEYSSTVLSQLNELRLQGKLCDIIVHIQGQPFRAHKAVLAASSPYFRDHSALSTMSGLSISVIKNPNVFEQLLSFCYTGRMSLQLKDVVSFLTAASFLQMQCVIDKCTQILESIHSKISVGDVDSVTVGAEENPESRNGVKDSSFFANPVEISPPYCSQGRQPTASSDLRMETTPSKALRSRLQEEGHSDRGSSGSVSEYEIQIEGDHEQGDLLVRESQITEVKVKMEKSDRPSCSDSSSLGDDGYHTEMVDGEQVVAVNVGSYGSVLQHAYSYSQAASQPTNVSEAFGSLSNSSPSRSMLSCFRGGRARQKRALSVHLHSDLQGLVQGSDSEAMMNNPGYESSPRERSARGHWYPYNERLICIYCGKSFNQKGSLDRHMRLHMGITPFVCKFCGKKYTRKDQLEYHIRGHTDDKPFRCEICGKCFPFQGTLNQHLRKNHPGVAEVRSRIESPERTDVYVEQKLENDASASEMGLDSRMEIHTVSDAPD
UniProt Q9NUD5: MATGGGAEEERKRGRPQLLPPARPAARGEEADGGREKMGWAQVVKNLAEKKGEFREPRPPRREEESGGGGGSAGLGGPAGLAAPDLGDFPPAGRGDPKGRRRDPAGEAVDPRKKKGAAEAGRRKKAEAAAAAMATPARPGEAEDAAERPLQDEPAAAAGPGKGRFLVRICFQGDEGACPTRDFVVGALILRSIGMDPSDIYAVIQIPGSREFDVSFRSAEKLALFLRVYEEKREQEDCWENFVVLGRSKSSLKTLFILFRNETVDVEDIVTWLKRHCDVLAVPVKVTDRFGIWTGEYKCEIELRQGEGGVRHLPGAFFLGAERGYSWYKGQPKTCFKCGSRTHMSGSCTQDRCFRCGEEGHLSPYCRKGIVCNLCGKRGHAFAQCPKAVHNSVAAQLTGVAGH
UniProt Q969M3: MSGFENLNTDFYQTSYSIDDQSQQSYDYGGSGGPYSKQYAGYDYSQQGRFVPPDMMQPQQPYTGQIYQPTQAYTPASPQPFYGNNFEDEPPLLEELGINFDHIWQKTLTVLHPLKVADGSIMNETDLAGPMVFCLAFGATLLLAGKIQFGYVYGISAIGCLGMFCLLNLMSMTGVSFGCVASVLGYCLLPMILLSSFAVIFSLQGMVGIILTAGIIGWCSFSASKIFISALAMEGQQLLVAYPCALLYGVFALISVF
UniProt P18887, whole entry, looked up: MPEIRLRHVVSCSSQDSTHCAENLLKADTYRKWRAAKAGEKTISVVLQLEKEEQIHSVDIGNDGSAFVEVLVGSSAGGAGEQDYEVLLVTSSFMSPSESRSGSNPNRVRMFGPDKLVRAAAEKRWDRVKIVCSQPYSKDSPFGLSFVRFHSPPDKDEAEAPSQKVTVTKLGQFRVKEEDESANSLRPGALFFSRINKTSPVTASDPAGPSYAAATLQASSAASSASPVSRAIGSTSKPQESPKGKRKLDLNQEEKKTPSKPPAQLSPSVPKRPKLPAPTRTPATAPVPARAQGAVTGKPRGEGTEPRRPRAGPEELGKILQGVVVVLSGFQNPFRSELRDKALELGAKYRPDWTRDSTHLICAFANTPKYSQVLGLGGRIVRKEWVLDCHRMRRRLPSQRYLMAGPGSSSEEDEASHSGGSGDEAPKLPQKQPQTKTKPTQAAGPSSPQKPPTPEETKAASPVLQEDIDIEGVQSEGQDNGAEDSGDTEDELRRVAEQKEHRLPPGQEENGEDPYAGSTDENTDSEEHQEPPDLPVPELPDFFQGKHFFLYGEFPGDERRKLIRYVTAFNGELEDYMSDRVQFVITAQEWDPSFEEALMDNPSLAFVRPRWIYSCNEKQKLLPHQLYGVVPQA
UniProt Q8IXZ2: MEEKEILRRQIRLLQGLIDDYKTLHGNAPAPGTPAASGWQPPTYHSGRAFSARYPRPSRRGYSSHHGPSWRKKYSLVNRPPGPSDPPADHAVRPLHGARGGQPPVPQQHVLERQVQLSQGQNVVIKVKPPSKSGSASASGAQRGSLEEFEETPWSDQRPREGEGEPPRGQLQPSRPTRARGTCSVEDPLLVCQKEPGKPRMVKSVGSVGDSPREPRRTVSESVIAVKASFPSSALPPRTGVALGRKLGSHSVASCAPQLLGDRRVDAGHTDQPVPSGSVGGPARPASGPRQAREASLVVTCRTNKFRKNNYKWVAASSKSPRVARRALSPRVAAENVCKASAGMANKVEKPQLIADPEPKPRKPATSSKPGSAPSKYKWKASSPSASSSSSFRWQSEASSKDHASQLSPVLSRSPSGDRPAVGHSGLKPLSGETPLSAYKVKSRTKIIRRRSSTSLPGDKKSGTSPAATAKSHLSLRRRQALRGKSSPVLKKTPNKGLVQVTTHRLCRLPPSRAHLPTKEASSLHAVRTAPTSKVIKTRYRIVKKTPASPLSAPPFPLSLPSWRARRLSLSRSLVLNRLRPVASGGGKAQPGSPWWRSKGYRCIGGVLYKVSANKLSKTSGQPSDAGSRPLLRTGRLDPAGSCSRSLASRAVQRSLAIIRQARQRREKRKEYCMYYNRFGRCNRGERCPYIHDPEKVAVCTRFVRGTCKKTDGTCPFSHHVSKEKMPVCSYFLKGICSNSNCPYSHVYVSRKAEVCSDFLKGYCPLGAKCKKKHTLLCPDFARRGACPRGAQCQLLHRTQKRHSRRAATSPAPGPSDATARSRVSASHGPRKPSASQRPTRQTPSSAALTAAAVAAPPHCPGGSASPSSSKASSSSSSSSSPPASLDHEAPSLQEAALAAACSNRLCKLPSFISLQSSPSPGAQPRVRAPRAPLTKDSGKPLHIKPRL
UniProt O95625: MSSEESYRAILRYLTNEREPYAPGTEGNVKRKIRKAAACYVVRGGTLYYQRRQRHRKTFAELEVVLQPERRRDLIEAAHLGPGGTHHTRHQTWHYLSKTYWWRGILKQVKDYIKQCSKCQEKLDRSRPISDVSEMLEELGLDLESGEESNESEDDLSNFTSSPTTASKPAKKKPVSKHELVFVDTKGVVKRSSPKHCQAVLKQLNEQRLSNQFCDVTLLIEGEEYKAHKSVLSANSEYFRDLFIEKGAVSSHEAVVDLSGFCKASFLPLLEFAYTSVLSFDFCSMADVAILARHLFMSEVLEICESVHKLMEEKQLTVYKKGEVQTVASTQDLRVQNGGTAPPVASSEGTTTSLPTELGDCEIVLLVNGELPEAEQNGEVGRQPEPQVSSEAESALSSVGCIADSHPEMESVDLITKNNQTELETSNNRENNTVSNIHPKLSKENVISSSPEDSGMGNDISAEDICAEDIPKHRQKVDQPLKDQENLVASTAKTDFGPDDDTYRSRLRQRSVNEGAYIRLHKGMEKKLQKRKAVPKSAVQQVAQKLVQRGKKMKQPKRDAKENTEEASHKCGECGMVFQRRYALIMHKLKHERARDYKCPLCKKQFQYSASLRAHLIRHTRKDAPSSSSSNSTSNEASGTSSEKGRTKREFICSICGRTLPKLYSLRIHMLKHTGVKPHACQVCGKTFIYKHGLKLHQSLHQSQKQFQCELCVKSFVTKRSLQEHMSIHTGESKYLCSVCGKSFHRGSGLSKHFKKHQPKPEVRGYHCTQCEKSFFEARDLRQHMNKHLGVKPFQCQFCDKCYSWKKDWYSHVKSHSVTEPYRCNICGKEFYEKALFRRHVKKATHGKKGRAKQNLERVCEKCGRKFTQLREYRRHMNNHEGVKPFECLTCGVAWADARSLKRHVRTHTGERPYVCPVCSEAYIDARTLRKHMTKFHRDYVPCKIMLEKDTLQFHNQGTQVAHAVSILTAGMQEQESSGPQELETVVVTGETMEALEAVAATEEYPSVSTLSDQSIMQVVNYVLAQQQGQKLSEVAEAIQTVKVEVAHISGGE
UniProt Q96GR4: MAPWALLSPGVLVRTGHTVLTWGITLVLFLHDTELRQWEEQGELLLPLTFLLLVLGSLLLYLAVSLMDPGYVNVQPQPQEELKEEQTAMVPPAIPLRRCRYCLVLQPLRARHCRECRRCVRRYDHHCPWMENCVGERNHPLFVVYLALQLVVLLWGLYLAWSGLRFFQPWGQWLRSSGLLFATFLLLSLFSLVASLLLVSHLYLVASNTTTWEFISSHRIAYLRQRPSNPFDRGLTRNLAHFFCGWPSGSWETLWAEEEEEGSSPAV
UniProt P47974: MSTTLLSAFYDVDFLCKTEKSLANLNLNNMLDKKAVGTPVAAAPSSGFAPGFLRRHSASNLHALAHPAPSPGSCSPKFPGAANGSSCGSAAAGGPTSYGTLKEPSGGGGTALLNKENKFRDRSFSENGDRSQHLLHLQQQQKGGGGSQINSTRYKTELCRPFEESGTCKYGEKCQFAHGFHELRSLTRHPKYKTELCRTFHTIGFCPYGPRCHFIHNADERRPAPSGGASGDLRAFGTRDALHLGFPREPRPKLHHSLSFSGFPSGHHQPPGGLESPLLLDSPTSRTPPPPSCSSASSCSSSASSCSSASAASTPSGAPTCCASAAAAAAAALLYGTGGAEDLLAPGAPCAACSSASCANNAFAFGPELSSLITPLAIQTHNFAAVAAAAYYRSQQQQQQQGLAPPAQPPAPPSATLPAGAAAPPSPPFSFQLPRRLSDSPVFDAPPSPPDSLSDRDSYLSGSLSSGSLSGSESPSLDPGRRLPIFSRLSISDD
UniProt Q8IZN3: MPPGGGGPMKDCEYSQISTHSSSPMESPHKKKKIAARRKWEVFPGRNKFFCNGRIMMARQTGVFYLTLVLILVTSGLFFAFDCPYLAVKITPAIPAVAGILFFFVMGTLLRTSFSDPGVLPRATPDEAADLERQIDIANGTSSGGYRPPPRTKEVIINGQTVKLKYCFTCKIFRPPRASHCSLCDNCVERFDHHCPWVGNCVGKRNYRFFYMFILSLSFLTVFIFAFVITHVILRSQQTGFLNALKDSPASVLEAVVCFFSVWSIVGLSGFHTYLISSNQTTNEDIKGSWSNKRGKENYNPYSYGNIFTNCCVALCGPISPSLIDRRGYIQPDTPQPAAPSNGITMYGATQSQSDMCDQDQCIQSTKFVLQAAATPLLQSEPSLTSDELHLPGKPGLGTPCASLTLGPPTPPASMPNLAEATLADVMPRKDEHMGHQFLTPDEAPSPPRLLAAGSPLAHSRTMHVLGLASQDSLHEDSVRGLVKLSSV
UniProt Q9BWQ6: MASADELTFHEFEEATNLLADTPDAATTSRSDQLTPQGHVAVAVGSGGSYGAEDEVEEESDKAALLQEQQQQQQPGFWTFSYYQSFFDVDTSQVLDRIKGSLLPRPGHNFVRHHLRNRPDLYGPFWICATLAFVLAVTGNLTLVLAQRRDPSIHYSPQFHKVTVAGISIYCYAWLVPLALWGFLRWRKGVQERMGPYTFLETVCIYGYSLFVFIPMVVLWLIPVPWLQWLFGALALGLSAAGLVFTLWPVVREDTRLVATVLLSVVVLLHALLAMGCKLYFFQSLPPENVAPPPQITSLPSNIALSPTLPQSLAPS
UniProt Q9H5U6: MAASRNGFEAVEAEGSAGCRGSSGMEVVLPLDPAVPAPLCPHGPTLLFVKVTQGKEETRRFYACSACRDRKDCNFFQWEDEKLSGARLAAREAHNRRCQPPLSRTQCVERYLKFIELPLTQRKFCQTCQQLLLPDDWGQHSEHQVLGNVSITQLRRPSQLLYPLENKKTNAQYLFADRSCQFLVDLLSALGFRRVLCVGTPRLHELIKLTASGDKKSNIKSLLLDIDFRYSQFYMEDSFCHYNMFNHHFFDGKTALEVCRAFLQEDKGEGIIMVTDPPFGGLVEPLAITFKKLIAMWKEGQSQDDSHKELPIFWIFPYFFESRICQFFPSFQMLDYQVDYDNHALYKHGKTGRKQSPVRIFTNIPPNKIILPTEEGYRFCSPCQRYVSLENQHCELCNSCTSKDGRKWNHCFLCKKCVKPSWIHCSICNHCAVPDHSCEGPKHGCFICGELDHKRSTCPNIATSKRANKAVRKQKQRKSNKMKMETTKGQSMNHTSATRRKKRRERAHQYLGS
UniProt C9J5V9: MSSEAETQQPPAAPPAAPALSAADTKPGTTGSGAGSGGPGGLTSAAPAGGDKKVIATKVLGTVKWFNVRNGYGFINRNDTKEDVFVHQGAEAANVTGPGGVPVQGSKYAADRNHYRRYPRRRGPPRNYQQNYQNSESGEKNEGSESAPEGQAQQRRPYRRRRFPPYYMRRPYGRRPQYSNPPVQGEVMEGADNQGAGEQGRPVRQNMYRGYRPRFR

What was measured:
Assay in all cases: log2 fold change, soluble protein after heating vs DMSO (PISA); higher = thermal stabilisation; K562 lysate, 10 uM; active = over 0.2 and 3.5 SD of the protein, either way, in both replicates (recomputed)
[1] = compound: C=CC(=O)N1CCC[C@@H](n2nc(-c3ccc(Oc4ccccc4)cc3)c3c(N)ncnc32)C1 [ibrutinib]
How it was run: (§1)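 Log-two fold change in thermal stability relative to solvent controls is reported from duplicates. For each sample, crude K562 extract from dounce-homogenised pellets in PBS pH 7.4 with 1 mM MgCl2, at 1 mg/mL protein, was treated with 10 μM compound for 30 min. Aliquots heated for 3 min across 48°C-58°C were pooled, brought to 0.5% NP-40 at 4°C and cleared at 21,000xg for 90 min. The supernatant was quantified by TMTpro 16plex LC-MS/MS with channel sums equalised.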

[2] = compound: CC(C)(C)Cn1c(N)nc2ccc(-c3[nH]c(C(C)(C)C)nc3-c3ccc(F)cc3)nc21 [ralimetinib]
How it was run: as §1

[3] = compound: CC(C)(O)CC(=O)NCCn1ccc2ncnc(Nc3ccc(Oc4cccc(C(F)(F)F)c4)c(Cl)c3)c21
How it was run: as §1

[4] = compound: CC(C)C1=C2N=C(C=C(N2N=C1)NCC3=CC=CC=C3)NCCCCCCN
How it was run: as §1

[5] = compound: CC1=C(C(CC(=O)N1)C2=CC=C(C=C2)C(F)(F)F)C(=O)NC3=C(C=C4C(=C3)C=NN4)F
How it was run: as §1

[6] = compound: CC1=C(C2=C(C=C1)C(=O)C3=CC=CC=C3N2CCCN)C
How it was run: as §1

[7] = compound: CC1=C(C=C(C=C1)NC(=O)C2=CC(=CC=C2)C(C)(C)C#N)NC3=CC4=C(C=C3)N=CN(C4=O)C
How it was run: as §1

[8] = compound: CC1=C(C=C(C=C1)NC(=O)C2=CC(=CC=C2)N(C)C)NC(=O)C3=CC=C(C=C3)O
How it was run: as §1

[9] = compound: CC(=O)c1cnc2ccc(-c3cc(Cl)c(O)c(Cl)c3)nc2c1N[C@H]1CC[C@H](CN(C)C)CC1
How it was run: as §1

[10] = compound: CC1=CC=C(C=C1)SC2=C3C=C(SC3=CN=C2)C(=O)N
How it was run: as §1

Measured: log2 fold change

ZC3H7A (UniProt Q8IWR0)
inactive: [1] -0.037 | [2] 0.023 | [3] 0.003 | [4] 0.012 | [5] -0.021 | [6] 0.051 | [7] -0.008 | [8] 0.053

ZFAND3 (UniProt Q9H8U3)
inactive: [1] -0.098 | [9] 0.092 | [2] 0 | [3] -0.045 | [6] -0.039 | [7] -0.16 | [8] -0.001 | [10] 0.029

ZFYVE19 isoform 3 (UniProt Q96K21)
inactive: [1] 0.085 | [9] -0.084 | [10] 0.047

ZBTB34 (UniProt Q8NCN2)
inactive: [1] 0.297 | [9] 0.071 | [2] 0.081 | [3] -0.042 | [6] 0.018 | [8] 0.093 | [10] -0.096

XPO5 (UniProt Q9HAV4)
inactive: [1] -0.041 | [9] 0.003 | [2] 0 | [3] -0.043 | [4] -0.039 | [5] -0.014 | [6] -0.01 | [7] -0.004 | [8] 0.043 | [10] -0.01

ZCCHC3 (UniProt Q9NUD5)
inactive: [1] 0.028 | [9] -0.031 | [2] 0.031 | [3] 0.046 | [4] 0.006 | [5] 0.025 | [6] -0.009 | [7] -0.047 | [8] 0.001 | [10] 0.027

YEATS4 (UniProt O95619)
inactive: [1] 0.02 | [9] 0.016 | [2] 0.003 | [3] 0.009 | [4] 0.001 | [5] 0.01 | [6] -0.004 | [7] 0.041 | [8] -0.035 | [10] -0.039

ZBTB3 (UniProt Q9H5J0)
inactive: [1] 0.029 | [9] 0.097 | [2] -0.014 | [3] -0.028 | [4] 0.052 | [6] 0.05 | [7] 0.103 | [8] 0.071 | [10] -0.223

ZFHX4 isoform 5 (UniProt Q86UP3)
inactive: [1] 0.191 | [9] 0.008 | [2] -0.12 | [3] -0.347 | [4] 0.107 | [5] 0.062 | [7] -0.179 | [8] 0.097 | [10] -0.073

YIF1A (UniProt O95070)
inactive: [1] 0.143 | [9] -0.075 | [2] 0.019 | [3] 0.034 | [4] -0.072 | [6] 0.025 | [7] 0.038 | [8] -0.044 | [10] 0.133

YIPF5 isoform 3 (UniProt Q969M3)
inactive: [1] 0.009 | [9] 0.01 | [2] -0.069 | [3] -0.075 | [4] 0.048 | [5] 0.001 | [6] 0.047 | [7] -0.027 | [8] 0.014 | [10] 0.023

YEATS2 (UniProt Q9ULM3)
inactive: [1] 0.037 | [9] 0.014 | [2] 0.109 | [3] -0.186 | [4] 0.088 | [5] -0.073 | [7] 0.02 | [8] 0.189 | [10] -0.098

ZBTB2 (UniProt Q8N680)
inactive: [1] -0.241 | [2] -0.034 | [3] -0.07 | [4] -0.043 | [5] -0.066 | [6] -0.041 | [7] -0.025 | [8] -0.02

YAF2 isoform 5 (UniProt Q8IY57)
inactive: [1] 0.147 | [9] 0.055 | [2] -0.056 | [3] 0.035 | [4] -0.102 | [6] 0 | [7] -0.028 | [8] 0.068 | [10] -0.052

XRCC1 (UniProt P18887)
inactive: [1] 0.038 | [9] 0 | [2] 0.028 | [3] 0 | [4] -0.005 | [5] 0.015 | [6] 0.081 | [7] -0.011 | [8] -0.002 | [10] 0

YAE1 (UniProt Q9NRH1)
inactive: [1] -0.007 | [2] -0.051 | [3] -0.133 | [4] -0.075 | [5] 0.05 | [6] -0.006 | [7] 0.047 | [8] 0.074

ZC3H3 (UniProt Q8IXZ2)
inactive: [9] -0.063 | [10] -0.033

ZBTB5 (UniProt O15062)
inactive: [2] -0.005 | [3] 0.026 | [4] -0.008 | [6] 0.057 | [7] 0.026 | [8] 0.045

ZDHHC17 (UniProt Q8IUH5)
inactive: [9] -0.063 | [2] 0.077 | [3] 0.047 | [5] -0.001 | [6] 0.161 | [7] -0.171 | [8] -0.067 | [10] -0.032

ZFX isoform 3 (UniProt P17010)
inactive: [9] 0.165 | [2] -0.01 | [3] -0.028 | [6] -0.044 | [7] -0.094 | [8] 0.027 | [10] -0.133

ZBTB11 (UniProt O95625)
inactive: [9] -0.186 | [4] -0.014 | [5] -0.018 | [7] -0.048 | [10] -0.111

Copied from the results shown (11 entries):
YIPF5 isoform 3 (UniProt Q969M3)
inactive: [1] 0.009 | [9] 0.01 | [2] -0.069 | [3] -0.075 | [4] 0.048 | [5] 0.001 | [6] 0.047 | [7] -0.027 | [8] 0.014 | [10] 0.023

YEATS2 (UniProt Q9ULM3)
inactive: [1] 0.037 | [9] 0.014 | [2] 0.109 | [3] -0.186 | [4] 0.088 | [5] -0.073 | [7] 0.02 | [8] 0.189 | [10] -0.098

ZBTB2 (UniProt Q8N680)
inactive: [1] -0.241 | [2] -0.034 | [3] -0.07 | [4] -0.043 | [5] -0.066 | [6] -0.041 | [7] -0.025 | [8] -0.02

YAF2 isoform 5 (UniProt Q8IY57)
inactive: [1] 0.147 | [9] 0.055 | [2] -0.056 | [3] 0.035 | [4] -0.102 | [6] 0 | [7] -0.028 | [8] 0.068 | [10] -0.052

XRCC1 (UniProt P18887)
inactive: [1] 0.038 | [9] 0 | [2] 0.028 | [3] 0 | [4] -0.005 | [5] 0.015 | [6] 0.081 | [7] -0.011 | [8] -0.002 | [10] 0

YAE1 (UniProt Q9NRH1)
inactive: [1] -0.007 | [2] -0.051 | [3] -0.133 | [4] -0.075 | [5] 0.05 | [6] -0.006 | [7] 0.047 | [8] 0.074

ZC3H3 (UniProt Q8IXZ2)
inactive: [9] -0.063 | [10] -0.033

ZBTB5 (UniProt O15062)
inactive: [2] -0.005 | [3] 0.026 | [4] -0.008 | [6] 0.057 | [7] 0.026 | [8] 0.045

ZDHHC17 (UniProt Q8IUH5)
inactive: [9] -0.063 | [2] 0.077 | [3] 0.047 | [5] -0.001 | [6] 0.161 | [7] -0.171 | [8] -0.067 | [10] -0.032

ZFX isoform 3 (UniProt P17010)
inactive: [9] 0.165 | [2] -0.01 | [3] -0.028 | [6] -0.044 | [7] -0.094 | [8] 0.027 | [10] -0.133

ZBTB11 (UniProt O95625)
inactive: [9] -0.186 | [4] -0.014 | [5] -0.018 | [7] -0.048 | [10] -0.111

Additional results:

ZCCHC7 (UniProt Q8N3Z6)
inactive: [5] 0.158 | [6] -0.051 | [7] 0.141

XRCC1 (UniProt F5H8D7)
inactive: [1] -0.118 | [4] -0.171 | [6] 0.244

ZDHHC12 isoform 3 (UniProt Q96GR4)
inactive: [7] 0.03

ZFP36L2 (UniProt P47974)
inactive: [1] 0.049 | [2] -0.251 | [3] 0.157 | [5] -0.001 | [6] -0.11 | [7] 0.002 | [8] -0.161

ZC3H14 isoform 11 (UniProt Q6PJT7)
inactive: [7] 0.016

ZCRB1 (UniProt Q8TBF4)
inactive: [9] -0.043 | [2] -0.024 | [3] -0.002 | [4] -0.006 | [5] 0.063 | [6] -0.041 | [7] -0.044 | [8] 0.022 | [10] 0.003

ZFAT (UniProt Q9P243)
inactive: [4] -0.08 | [5] -0.02

XRCC5 (UniProt C9JZ81)
inactive: [9] 0.095 | [5] -0.13 | [10] -0.141

ZBTB37 (UniProt Q5TC79)
inactive: [2] 0.134 | [3] -0.014 | [7] -0.034 | [8] -0.147

ZBED6 (UniProt P86452)
inactive: [9] -0.101 | [2] -0.221 | [3] -0.176 | [4] 0.084 | [6] -0.198 | [8] 0.041 | [10] -0.23

ZBTB44 (UniProt Q8NCP5)
inactive: [7] 0.023

ZBTB7B isoform 2 (UniProt O15156)
inactive: [1] 0.123 | [6] -0.368 | [7] 0.046

ZC3H12A (UniProt Q5D1E8)
inactive: [2] 0.004 | [3] -0.04 | [4] -0.043 | [5] -0.231 | [6] -0.235 | [7] -0.051 | [8] 0.069

ZCCHC10 (UniProt Q8TBK6)
inactive: [1] 0.068 | [2] -0.061 | [3] 0.202 | [6] 0.017 | [7] 0.052 | [8] -0.161

ZDHHC13 (UniProt Q8IUH4)
inactive: [1] 0.118 | [4] -0.036 | [6] 0.076

ZDHHC14 (UniProt Q8IZN3)
inactive: [9] 0.01 | [2] 0.037 | [3] -0.16 | [5] -0.001 | [6] 0.025 | [7] -0.035 | [8] 0.161 | [10] -0.021

YIPF2 (UniProt Q9BWQ6)
inactive: [2] -0.061 | [3] -0.051 | [4] -0.084 | [7] -0.007 | [8] 0.044

ZFAND1 (UniProt Q8TCF1)
inactive: [1] 0.041 | [2] 0.003 | [3] 0.128 | [6] -0.06 | [7] -0.051 | [8] -0.001

ZCCHC4 (UniProt Q9H5U6)
inactive: [5] 0.039 | [6] 0.059

YBX1 (UniProt C9J5V9)
inactive: [7] -0.008
